The results in this text go back to patent US5134150A, “Inhibition of the 5-lipoxygenase pathway” (priority 1989, dated 1992).

Structures are written as SMILES.

Assay [1] concerns Infiltration of Polymorphonuclear Leukocytes into Sites of Carrageenan-Induced Inflammation. The assay can be described thus: Mouse carrageenan peritonitis (PMN infiltration). The class given is in vivo, mouse (male Balb/c). An excerpt:
(§1) In the following Examples where mice were used, they were male Balb/c mice (20-28 g), and where rats were used, they were male Lewis rats (180-210 g). All mice and rats were obtained from Charles River Breeding Laboratories, Kingston, N.Y. Within a single experiment, mice and rats were sex and age matched.
(§2) The compounds of Formula (I) were used either as the free base or in the appropriate salt form. Levamisole was used as the hydrochloride salt. The compounds were homogenized in 0.5% tragacanth. Compounds were administered by gavage at the indicated dose in a final volume of 10 ml/kg. Nordihydroguaiaretic acid (NDGA) was solubilized in dimethylacetamide and diluted with olive oil for subcutaneous administration.
Mice were pretreated with either the test compound or vehicle one hour before the intraperitoneal injection of a 1.0% carrageenan suspension in saline (0.2 ml/mouse). Mice were sacrificed by cervical dislocation two hours after injection, and 3.0 ml of phosphate buffered saline, without Ca^++ or Mg^++, was injected into the peritoneum. Following massage, a 2.0 ml aliquot of the lavage fluid was removed, and the total cell count determined on a Coulter counter and differential cell count determined by microscopic examination of Giesma-stained slides.

Assay [2] deals with Arachidonic Acid-Induced Inflammation of the Mouse Ear. The assay can be described thus: Arachidonic acid-induced mouse ear inflammation. In kind it is in vivo, mouse (male Balb/c).
Description: as §1, §2
Arachidonic acid in acetone ([…]) was applied to the inner surface of the left ear. The thickness of both ears was then measured with a dial micrometer one hour after treatment, and the data were expressed as the change in thickness (10^-3 cm) between treated and untreated ears.
Test compounds were given orally in 0.5% tragacanth at the times indicated in the text prior to the topical application of arachidonic acid.
Parenteral administration of compound was accomplished by subcutaneous injection of solution as indicated.

Regarding `COc1ccc2cc([C@H](C)C(=O)O)ccc2c1` [Naproxen], in assay [1] (100 mg/kg, p.o., Table 3), the “% Change (PMN)” value was -11% and the “PMN (Mean ± S.D.)” value is listed as 10.28 ± 2.49 × 10^-5 /ml. In addition, the “PMN infiltration, result in words” value in assay [1] (carrageenan peritonitis, mice) is listed as “did not impair inflammatory cell infiltration”. Further, in assay [2] (100 mg/kg, p.o.), the “% Change (ear thickness)” value is recorded as “+3%” and the “Increase in Ear Thickness at 1 Hour” value is recorded as 26.4 ± 2.6 × 10-3 cm. Also, in assay [2] (mouse, in vivo), the “Mouse ear edema, result in words” value is “did not exhibit detectable anti-inflammatory activity”.
